Measurements as given in paper PMC5494507, “γ‐Secretase inhibitors in cancer clinical trials are pharmacologically and functionally distinct” (EMBO Molecular Medicine, 2017).

Legend:
Set-up in all cases: species or system human
Conditions in all cases: rank among the six GSIs, number in brackets
cNOTCH1sub = experiment: Cell-based γ-secretase cleavage assay, cNOTCH1sub in H4 cells (Aβ-like peptide ELISA)
Experimental: (§1) Using these cell‐based γ‐secretase cleavage assays, we systematically investigated the substrate inhibition profile of BMS‐906024, MK‐0752, PF‐308414, RO4929097, Semagacestat, and DAPT. We treated H4 cells stably expressing cNOTCH1‐4sub with 4 pM to 10 μM of GSIs (Fig 5A and Table 2) and measured the Aβ‐like peptide secreted into the media.
(§2) For the cell‐based assay, all substrates contain a human NOTCH4 signal peptide sequence ([…]), amyloid β peptide (Aβ1–25/K16A) epitope tag followed by the juxtamembrane region (JMD) of the given substrate and a FLAG tag ([…]) at the COOH‐terminal. K16A mutant was created to decrease potential α‐secretase cleavage. The cDNAs were generated by gene synthesis conducted by Genscript. A schematic representation of the substrates is provided in Fig 4A, and sequences of the cDNAs and the proteins are provided in Appendix Fig S6. For clarity, these substrates are referred to as cell‐based assay substrates (e.g., NOTCH1 is cNOTCH1sub). Substrate cDNAs were cloned into pCDNA3.1 (Invitrogen, Carlsbad, CA, USA) for expression in H4 cells (ATCC, Manassas, VA).
(§3) H4 cells were cultured in Opti‐mem media (Thermo‐Fisher) supplemented with Hyclone 6% fetal bovine serum (GE, Logan, Utah, USA) and 1% penicillin/streptomycin (Life Technologies, Grand Island, NY, USA). pCDNA3.1 plasmids containing the substrate cDNAs were transfected into H4 cells using FuGENE HD reagent (Madison, WI, USA). Stable cell lines were established using G418 selection. […] Cells and conditioned media were used for WB, IP, and ELISA.
(§4) Sandwich ELISAs used for Aβ detection were performed as previously described (Murphy et al, 1999; Ran et al, 2014). Briefly, Aβ and Aβ‐like peptides in conditioned media were captured with Ab5 antibody and detected with horseradish peroxidase labeled mAb 4G8 (Biolegend). Synthetic Aβ1‐40 was used as standard. All ELISAs were developed with TMB substrate (KPL, Gaithersburg, Maryland, USA). Bis‐Tris precast gels (Biorad, Hercules, CA, USA) were used for all SDS–PAGE. Monoclonal anti‐FLAG M2 antibody (Sigma) and Aβ1‐16 antibody 6E10 (Covance) were used for Western blotting at 1:1,000 dilution. Anti‐CD74 In‐1 antibody (BD Bioscience, San Jose, CA, USA) was used for A20 cell lysate Western blotting at dilution of 1:1,000. MDA‐MB‐231 cell extracts were prepared by lysing cells in RIPA buffer containing protease and phosphatase inhibitors. The lysates were kept on ice for 30 min and vortexed every 10 min, and then centrifuged at 4°C for 10 min at 1,000 g. The supernatants were collected, and protein concentrations were determined by Bradford Assay. Pan‐NOTCH1 antibody (C‐20) (Santa Cruz Biotechnology) and cleaved NOTCH1 (Val1744) antibody ([…]) were used at 1:500 and 1:100 dilution in the test of endogenous NOTCH1 inhibition with β‐actin expression used as loading control. β‐actin antibody was used at 1:1,000 dilution (Sigma). Band intensities normalized for actin using densitometry analysis with ImageJ Software (NIH, USA).

cNOTCH3sub = experiment: Cell-based γ-secretase cleavage assay, cNOTCH3sub in H4 cells (Aβ-like peptide ELISA)
Experimental: as §1, §2, §3, §4

cNOTCH4sub = experiment: Cell-based γ-secretase cleavage assay, cNOTCH4sub in H4 cells (Aβ-like peptide ELISA)
Experimental: as §1, §2, §3, §4

Structure (SMILES)	rank order of inhibition of cNOTCH1sub (cNOTCH1sub)	rank order of inhibition of cNOTCH3sub (cNOTCH3sub)	rank order of inhibition of cNOTCH4sub (cNOTCH4sub)
CN1C(=O)[C@@H](NC(=O)[C@H](CCC(F)(F)F)[C@H](CCC(F)(F)F)C(N)=O)N=C(c2ccccc2)c2ccccc21 [BMS‐906024]	[1] ^d	[1]	[1]
C[C@H](NC(=O)Cc1cc(F)cc(F)c1)C(=O)N[C@H](C(=O)OC(C)(C)C)c1ccccc1 [DAPT]	[4]	[6]	[5]
O=C(O)CC[C@H]1CC[C@@](c2cc(F)ccc2F)(S(=O)(=O)c2ccc(Cl)cc2)CC1 [MK‐0752]	[6]	[4]	[6]
CCC[C@H](N[C@H]1CCc2cc(F)cc(F)c2C1)C(=O)Nc1cn(C(C)(C)CNCC(C)(C)C)cn1 [PF‐3084014]	[3]	[2]	[2]
CC(C)(C(=O)NCC(F)(F)C(F)(F)F)C(=O)N[C@@H]1C(=O)Nc2ccccc2-c2ccccc21 [RO4929097]	[2]	[3]	[3]
CC(C)[C@H](O)C(=O)N[C@@H](C)C(=O)N[C@@H]1C(=O)N(C)CCc2ccccc21 [Semagacestat]	[5]	[5]	[4]
